Laboratory results published in PMC5059885.
No constants are given. Whether binding was seen depends on the method and setting. Binding seen in cells or lysates may run through a third protein. Some results given as binding are weak or reduced against the parent protein; the word gives no strength.

By UniProt entry, the sequences of proteins in these tests, tags left out. Residues count along the entry.
UniProt Q03405, residues 23-305: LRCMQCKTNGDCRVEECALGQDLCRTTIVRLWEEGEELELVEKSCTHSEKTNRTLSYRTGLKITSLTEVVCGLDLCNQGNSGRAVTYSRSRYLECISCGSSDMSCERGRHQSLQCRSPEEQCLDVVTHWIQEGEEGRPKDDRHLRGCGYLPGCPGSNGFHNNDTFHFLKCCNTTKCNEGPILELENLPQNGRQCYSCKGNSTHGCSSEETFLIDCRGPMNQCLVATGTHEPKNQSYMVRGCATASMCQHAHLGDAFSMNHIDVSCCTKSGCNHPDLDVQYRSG
UniProt O00206, residues 24-839: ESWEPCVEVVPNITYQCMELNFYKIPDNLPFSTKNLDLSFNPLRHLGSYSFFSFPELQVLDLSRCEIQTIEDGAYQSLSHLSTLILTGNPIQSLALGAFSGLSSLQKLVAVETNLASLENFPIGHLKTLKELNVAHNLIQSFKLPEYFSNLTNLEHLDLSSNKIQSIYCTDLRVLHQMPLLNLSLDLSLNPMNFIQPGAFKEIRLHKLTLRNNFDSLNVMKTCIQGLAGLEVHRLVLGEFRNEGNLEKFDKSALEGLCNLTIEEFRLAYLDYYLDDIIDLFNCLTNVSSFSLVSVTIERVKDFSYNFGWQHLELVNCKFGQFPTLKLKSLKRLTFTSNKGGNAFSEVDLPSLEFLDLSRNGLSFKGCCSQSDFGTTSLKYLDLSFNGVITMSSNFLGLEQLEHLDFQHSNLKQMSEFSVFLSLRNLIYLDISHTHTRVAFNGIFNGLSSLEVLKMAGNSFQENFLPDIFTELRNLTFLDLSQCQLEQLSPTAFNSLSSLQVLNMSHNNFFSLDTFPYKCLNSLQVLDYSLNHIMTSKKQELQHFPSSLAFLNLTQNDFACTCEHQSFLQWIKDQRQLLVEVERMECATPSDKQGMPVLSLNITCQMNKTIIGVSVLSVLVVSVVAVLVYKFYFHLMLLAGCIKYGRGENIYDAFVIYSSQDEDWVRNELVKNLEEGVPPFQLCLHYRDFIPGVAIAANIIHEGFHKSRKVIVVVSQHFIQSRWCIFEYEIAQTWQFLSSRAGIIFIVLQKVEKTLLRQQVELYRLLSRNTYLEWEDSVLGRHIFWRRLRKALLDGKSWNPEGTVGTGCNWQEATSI

How the values were obtained:
[1] = target: Urokinase-type plasminogen activator receptor (PLAUR) (human (endogenous in HeLa)) (UniProt Q03405); assay: co-IP; HeLa cell lysates, untreated or after induction of DNA damage (Dox); lysis in 20 mM Tris pH 7.4, 150 mM NaCl, 10 mM MgCl2, 2 mM EDTA, 10% glycerol, 1% Triton X-100; 1000 ug lysate with 4 ug PLAUR (C-16) or TLR4 (H-80) antibody and Protein A/G PLUS agarose; western blotting; PLAUR/TLR4 also repeated in the reverse direction
[2] = target: Urokinase-type plasminogen activator receptor (PLAUR) (human (endogenous in HeLa)) (UniProt Q03405); assay: proximity ligation; Duolink in situ proximity ligation assay on fixed HeLa cells, untreated or irradiated at 9 Gy and fixed at the indicated time points; signals per cell counted with ImageJ

For “toll-like receptor 4 (TLR4) (from UniProt O00206 24-839)”, the binding [1] was “binds” and the binding [2] was “binds”.

B1: TLR1 (receptor, UniProt Q15399 25-786)
chain: SEFLVDRSKNGLIHVPKDLSQKTTILNISQNYISELWTSDILSLSKLRILIISHNRIQYLDISVFKFNQELEYLDLSHNKLVKISCHPTVNLKHLDLSFNAFDALPICKEFGNMSQLKFLGLSTTHLEKSSVLPIAHLNISKVLLVLGETYGEKEDPEGLQDFNTESLHIVFPTNKEFHFILDVSVKTVANLELSNIKCVLEDNKCSYFLSILAKLQTNPKLSNLTLNNIETTWNSFIRILQLVWHTTVWYFSISNVKLQGQLDFRDFDYSGTSLKALSIHQVVSDVFGFPQSYIYEIFSNMNIKNFTVSGTRMVHMLCPSKISPFLHLDFSNNLLTDTVFENCGHLTELETLILQMNQLKELSKIAEMTTQMKSLQQLDISQNSVSYDEKKGDCSWTKSLLSLNMSSNILTDTIFRCLPPRIKVLDLHSNKIKSIPKQVVKLEALQELNVAFNSLTDLPGCGSFSSLSVLIIDHNSVSHPSADFFQSCQKMRSIKAGDNPFQCTCELGEFVKNIDQVSSEVLEGWPDSYKCDYPESYRGTLLKDFHMSELSCNITLLIVTIVATMLVLAVTVTSLCSYLDLPWYLRMVCQWTQTRRRARNIPLEELQRNLQFHAFISYSGHDSFWVKNELLPNLEKEGMQICLHERNFVPGKSIVENIITCIEKSYKSIFVLSPNFVQSEWCHYELYFAHHNLFHEGSNSLILILLEPIPQYSIPSSYHKLKSLMARRTYLEWPKEKSKRGLFWANLRAAINIKLTEQAKK
For B1, the binding [1] was “binds”.
